Reference: the supplement of paper PMC10849652
The other results are listed elsewhere or left out.

Protein sequences, listed by entry. Tags and fused reporters are not part of them. Lines headed by an entry give the natural chain unless they say otherwise; changes in a name come on top.
UniProt O75448: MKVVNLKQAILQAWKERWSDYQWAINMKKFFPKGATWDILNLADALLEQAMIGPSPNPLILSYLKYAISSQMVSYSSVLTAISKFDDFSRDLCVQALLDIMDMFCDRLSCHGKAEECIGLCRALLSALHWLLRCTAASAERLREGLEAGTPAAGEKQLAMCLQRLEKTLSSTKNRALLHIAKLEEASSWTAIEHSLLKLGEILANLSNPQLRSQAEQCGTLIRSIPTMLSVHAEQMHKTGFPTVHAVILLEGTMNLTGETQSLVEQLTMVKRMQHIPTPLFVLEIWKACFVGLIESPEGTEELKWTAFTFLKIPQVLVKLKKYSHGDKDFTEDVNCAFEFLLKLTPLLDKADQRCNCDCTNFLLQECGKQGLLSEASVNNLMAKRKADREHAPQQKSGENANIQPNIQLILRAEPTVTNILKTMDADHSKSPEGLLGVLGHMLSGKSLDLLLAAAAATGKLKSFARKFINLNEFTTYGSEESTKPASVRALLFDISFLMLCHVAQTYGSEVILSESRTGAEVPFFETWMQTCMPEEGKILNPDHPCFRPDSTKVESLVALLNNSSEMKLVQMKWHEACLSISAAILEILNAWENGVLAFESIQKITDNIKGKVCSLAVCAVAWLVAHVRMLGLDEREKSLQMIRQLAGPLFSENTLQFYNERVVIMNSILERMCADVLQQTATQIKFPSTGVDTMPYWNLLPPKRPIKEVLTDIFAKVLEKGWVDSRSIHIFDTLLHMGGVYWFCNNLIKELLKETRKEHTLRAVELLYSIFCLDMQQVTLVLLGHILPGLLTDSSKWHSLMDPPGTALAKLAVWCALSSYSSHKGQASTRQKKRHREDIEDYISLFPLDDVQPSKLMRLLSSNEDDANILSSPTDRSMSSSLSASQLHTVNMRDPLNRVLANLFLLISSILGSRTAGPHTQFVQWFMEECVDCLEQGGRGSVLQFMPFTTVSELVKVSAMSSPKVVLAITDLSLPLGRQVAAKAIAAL
UniProt P48163: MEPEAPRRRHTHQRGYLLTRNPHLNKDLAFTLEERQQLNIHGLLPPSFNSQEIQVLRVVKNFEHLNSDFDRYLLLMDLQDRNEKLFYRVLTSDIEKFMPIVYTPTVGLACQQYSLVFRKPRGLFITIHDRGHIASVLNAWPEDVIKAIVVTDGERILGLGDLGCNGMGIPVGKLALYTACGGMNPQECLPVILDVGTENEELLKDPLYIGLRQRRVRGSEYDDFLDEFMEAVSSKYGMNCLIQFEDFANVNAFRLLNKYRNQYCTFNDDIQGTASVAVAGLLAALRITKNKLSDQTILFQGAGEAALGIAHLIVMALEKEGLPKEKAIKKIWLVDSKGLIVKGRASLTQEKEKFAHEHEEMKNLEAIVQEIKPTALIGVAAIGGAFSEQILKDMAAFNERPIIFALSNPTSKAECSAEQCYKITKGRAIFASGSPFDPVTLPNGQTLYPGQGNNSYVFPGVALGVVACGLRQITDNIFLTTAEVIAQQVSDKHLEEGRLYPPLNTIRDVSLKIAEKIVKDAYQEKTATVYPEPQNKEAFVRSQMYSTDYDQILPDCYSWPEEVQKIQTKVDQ
UniProt Q9BTE3: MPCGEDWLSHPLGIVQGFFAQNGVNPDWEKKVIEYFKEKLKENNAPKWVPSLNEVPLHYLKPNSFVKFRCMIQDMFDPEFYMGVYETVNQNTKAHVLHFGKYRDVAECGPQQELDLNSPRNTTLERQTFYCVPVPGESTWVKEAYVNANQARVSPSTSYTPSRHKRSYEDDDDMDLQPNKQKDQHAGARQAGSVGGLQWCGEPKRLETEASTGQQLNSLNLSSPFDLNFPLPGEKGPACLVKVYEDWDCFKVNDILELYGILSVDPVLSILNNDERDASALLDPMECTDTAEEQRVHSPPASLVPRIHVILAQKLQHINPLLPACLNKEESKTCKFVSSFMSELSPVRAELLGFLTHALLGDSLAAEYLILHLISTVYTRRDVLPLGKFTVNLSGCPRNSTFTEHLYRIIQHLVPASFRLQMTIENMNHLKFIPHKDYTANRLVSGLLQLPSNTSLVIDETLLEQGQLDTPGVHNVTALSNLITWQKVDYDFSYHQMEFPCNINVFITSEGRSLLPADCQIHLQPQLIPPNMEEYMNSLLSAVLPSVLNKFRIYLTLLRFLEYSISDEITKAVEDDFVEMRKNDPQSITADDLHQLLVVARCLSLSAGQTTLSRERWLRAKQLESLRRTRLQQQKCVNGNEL
UniProt Q9HCE5: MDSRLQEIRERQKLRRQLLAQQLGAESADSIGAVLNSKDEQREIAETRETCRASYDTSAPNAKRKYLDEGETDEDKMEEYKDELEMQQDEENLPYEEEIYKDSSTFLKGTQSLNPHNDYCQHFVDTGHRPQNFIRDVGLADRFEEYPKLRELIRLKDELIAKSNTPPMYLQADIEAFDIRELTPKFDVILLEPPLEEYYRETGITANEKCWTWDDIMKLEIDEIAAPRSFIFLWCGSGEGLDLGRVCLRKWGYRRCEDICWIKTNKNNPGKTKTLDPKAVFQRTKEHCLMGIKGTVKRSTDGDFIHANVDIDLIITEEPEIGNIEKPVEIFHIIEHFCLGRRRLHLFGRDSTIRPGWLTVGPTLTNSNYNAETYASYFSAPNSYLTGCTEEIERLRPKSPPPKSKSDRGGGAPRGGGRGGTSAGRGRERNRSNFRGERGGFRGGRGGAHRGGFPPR
UniProt P56270: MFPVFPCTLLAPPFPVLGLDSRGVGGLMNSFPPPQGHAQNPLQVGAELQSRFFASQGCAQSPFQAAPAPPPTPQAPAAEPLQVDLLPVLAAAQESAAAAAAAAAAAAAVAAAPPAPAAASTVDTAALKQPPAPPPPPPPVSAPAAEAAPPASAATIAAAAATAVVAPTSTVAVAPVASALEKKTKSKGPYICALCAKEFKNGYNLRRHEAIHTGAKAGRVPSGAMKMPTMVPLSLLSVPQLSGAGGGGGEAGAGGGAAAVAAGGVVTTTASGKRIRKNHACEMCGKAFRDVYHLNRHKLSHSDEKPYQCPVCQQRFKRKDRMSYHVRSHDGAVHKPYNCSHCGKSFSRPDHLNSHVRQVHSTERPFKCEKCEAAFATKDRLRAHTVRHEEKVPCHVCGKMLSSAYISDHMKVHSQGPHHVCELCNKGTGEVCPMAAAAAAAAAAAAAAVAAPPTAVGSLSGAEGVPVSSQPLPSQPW
UniProt Q9BUE0: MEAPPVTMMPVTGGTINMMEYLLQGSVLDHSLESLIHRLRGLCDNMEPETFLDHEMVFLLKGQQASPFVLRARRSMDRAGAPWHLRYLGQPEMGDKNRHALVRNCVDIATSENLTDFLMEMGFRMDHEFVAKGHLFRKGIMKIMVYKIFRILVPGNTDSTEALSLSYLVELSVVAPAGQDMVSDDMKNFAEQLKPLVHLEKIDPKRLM
UniProt Q8TCB7: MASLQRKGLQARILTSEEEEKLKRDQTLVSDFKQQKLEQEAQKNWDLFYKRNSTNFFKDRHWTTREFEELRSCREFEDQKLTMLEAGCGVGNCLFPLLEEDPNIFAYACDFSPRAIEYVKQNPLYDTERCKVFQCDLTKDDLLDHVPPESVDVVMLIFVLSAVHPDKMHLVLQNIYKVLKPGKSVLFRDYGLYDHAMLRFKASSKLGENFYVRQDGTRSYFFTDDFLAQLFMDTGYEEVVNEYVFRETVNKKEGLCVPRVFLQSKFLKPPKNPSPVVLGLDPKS
UniProt Q9BV79: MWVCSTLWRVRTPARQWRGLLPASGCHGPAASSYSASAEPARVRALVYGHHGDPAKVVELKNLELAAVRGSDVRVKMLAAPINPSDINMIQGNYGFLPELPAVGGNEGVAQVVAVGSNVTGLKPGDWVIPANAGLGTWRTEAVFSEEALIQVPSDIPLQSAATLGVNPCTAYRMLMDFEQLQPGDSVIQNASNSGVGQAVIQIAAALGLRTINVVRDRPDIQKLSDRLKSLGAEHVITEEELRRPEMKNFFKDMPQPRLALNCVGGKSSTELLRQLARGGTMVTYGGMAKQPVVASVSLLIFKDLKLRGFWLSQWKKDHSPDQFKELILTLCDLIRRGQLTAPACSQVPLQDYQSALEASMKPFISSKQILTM
UniProt O60244: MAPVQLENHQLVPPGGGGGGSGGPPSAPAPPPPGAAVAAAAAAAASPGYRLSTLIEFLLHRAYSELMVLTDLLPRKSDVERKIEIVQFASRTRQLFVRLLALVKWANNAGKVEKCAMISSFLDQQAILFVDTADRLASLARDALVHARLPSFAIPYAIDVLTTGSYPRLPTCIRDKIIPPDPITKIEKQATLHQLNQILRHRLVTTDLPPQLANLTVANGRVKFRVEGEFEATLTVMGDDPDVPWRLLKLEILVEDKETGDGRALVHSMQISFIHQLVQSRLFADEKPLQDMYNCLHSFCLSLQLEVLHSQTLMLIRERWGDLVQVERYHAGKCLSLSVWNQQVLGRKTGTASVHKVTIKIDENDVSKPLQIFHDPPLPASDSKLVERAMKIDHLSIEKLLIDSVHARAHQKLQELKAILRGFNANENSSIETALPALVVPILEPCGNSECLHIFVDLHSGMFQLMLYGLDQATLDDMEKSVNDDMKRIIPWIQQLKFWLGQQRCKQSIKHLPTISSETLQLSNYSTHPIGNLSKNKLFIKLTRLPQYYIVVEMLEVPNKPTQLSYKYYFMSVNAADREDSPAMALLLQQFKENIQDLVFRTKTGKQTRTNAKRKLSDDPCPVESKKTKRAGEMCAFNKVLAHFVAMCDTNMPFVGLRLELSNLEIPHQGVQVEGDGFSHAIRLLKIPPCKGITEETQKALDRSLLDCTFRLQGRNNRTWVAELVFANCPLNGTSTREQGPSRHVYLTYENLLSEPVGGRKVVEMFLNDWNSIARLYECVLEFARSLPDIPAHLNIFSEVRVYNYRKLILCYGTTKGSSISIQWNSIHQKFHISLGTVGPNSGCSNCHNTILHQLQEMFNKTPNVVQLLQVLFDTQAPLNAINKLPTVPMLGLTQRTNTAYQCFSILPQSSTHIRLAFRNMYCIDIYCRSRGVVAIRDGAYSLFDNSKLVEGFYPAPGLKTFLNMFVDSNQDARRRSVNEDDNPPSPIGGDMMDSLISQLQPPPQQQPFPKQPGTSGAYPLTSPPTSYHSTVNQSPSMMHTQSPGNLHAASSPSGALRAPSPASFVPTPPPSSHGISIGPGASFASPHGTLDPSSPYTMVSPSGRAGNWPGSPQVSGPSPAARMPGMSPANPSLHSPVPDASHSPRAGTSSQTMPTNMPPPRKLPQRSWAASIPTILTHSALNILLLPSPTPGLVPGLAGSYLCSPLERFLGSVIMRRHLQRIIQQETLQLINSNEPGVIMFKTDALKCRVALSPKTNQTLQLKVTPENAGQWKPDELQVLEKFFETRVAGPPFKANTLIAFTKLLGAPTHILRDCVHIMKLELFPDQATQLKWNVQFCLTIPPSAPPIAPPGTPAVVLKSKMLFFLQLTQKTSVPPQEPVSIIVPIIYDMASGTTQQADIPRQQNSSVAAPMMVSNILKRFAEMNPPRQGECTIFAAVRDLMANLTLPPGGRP
UniProt Q9NRN9: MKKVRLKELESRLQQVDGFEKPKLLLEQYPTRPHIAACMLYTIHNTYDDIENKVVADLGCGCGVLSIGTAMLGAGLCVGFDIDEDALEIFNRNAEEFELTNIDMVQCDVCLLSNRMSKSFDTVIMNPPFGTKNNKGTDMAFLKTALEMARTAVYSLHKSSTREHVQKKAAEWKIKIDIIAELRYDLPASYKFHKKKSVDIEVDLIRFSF
UniProt Q9BQP7: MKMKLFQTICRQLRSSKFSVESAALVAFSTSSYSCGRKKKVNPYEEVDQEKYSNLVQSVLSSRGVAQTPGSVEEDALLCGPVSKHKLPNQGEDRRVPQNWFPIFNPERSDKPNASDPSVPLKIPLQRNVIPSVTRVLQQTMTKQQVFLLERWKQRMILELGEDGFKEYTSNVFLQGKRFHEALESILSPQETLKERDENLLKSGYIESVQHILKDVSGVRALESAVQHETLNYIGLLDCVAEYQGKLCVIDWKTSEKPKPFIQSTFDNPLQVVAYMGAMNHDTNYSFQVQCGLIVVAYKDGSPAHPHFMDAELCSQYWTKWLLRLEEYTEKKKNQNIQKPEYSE
UniProt Q5TF39: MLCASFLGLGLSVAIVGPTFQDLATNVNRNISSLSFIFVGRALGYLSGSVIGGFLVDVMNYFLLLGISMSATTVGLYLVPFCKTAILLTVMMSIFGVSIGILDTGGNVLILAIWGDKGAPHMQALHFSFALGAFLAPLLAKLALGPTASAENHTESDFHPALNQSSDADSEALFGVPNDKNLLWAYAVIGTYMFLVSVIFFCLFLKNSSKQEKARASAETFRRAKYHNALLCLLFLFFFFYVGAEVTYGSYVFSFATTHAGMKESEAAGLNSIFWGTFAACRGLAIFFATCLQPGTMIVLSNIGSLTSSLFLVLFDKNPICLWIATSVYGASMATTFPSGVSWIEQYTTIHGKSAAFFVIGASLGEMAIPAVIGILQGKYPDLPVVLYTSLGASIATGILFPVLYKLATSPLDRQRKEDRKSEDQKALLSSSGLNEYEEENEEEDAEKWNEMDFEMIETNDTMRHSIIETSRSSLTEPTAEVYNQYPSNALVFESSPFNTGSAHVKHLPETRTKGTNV

Columns and labels:
Test in all cases: log2 fold change, soluble protein after heating vs DMSO (PISA); higher = thermal stabilisation; K562 cells, 10 uM, 30 min; active = over 0.2 and 3.5 SD of the protein, either way, in both replicates (recomputed)
[1] = compound: CS(=O)(=O)c1ccc(-c2cnc(N)c(C(=O)Nc3ccccc3)n2)cc1
Method in brief: (§1)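 K562 cells at 2×10^6 cells/mL were treated for 30 min with 10 μM compound, and aliquots were heated for 3 min over 48°C-58°C before pooling. Extraction used PBS with 0.5% NP-40 at 4°C, and soluble protein was the supernatant after 21,000xg for 90 min, measured by TMTpro 16plex LC-MS/MS with channel sums equalised. Thermal stability values, relative to control samples and from duplicates, are log2 fold changes.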

[2] = compound: C[C@@H](Oc1cc(-c2cnn(C3CCNCC3)c2)cnc1N)c1c(Cl)ccc(F)c1Cl [crizotinib]
Method in brief: as §1

[3] = compound: C[C@@H]1COCCN1C2=NC(=NC(=C2)C3(CC3)S(=O)(=O)C)C4=C5C=CNC5=CC=C4
Method in brief: as §1

[4] = compound: C[C@H](C1=CC=C(C=C1)C(=O)NC2=C3C=CNC3=NC=C2)N
Method in brief: as §1

[5] = compound: C[C@H](Nc1ncnc2nc[nH]c12)c1cc2cccc(Cl)c2c(=O)n1-c1ccccc1 [duvelisib]
Method in brief: as §1

[6] = compound: Cc1cc(Nc2cc(CN3CCOCC3)c3nc(C)c(Cc4ccc(Cl)cc4F)n3n2)n[nH]1 [gandotinib]
Method in brief: as §1

[7] = compound: Cc1cc(Nc2cc(N3CCN(C)CC3)nc(Sc3ccc(NC(=O)C4CC4)cc3)n2)n[nH]1 [tozasertib]
Method in brief: as §1

[8] = compound: Cc1cc(SCc2sc(-c3ccc(C(F)(F)F)cc3)nc2C)ccc1OCC(=O)O
Method in brief: as §1

[9] = compound: Cc1ccc(-n2nc(C(C)(C)C)cc2NC(=O)Nc2ccc(OCCN3CCOCC3)c3ccccc23)cc1 [doramapimod]
Method in brief: as §1

[10] = compound: Cc1ccc(C(=O)N(CCCN)[C@@H](c2nc3cc(Cl)ccc3c(=O)n2Cc2ccccc2)C(C)C)cc1 [ispinesib]
Method in brief: as §1

Measured: log2 fold change

MIA3 (UniProt Q5JRA6)
inactive: [1] 0.003 | [2] 0.078 | [3] -0.03 | [4] 0.026 | [5] -0.006 | [6] -0.051 | [7] 0.029 | [8] -0.005 | [9] -0.006 | [10] 0.022

METAP1 (UniProt P53582)
inactive: [1] 0.009 | [2] 0.013 | [3] -0.035 | [4] -0.016 | [5] 0.069 | [6] 0.073 | [7] -0.022 | [8] 0.026 | [9] -0.067 | [10] 0.062

MFAP1 (UniProt P55081)
inactive: [1] 0.013 | [2] 0.014 | [3] -0.056 | [4] -0.058 | [5] -0.008 | [6] 0.125 | [7] -0.023 | [8] -0.081 | [9] -0.042 | [10] -0.009

MED24 (UniProt O75448)
inactive: [1] -0.051 | [2] -0.069 | [3] 0.027 | [4] 0.051 | [5] -0.015 | [6] -0.236 | [7] 0.003 | [8] -0.007 | [9] 0.055 | [10] -0.143

ME1 (UniProt P48163)
inactive: [1] 0.015 | [2] 0.042 | [3] 0.031 | [4] -0.07 | [5] 0.07 | [6] 0.04 | [7] -0.032 | [8] -0.034 | [9] -0.012 | [10] 0.037

MCMBP (UniProt Q9BTE3)
inactive: [1] 0.049 | [2] -0.163 | [3] 0.042 | [4] 0.057 | [5] 0.04 | [6] -0.134 | [7] 0.033 | [8] 0.11 | [9] 0.056 | [10] -0.023

METTL14 (UniProt Q9HCE5)
inactive: [1] 0.029 | [2] -0.006 | [3] 0.056 | [4] -0.022 | [5] 0.012 | [6] -0.013 | [7] -0.037 | [8] -0.019 | [9] 0.033 | [10] 0.001

MAZ isoform 2 (UniProt P56270)
inactive: [1] -0.104 | [2] 0.272 | [3] -0.392 | [4] 0.058 | [5] -0.051 | [6] 0.118 | [7] 0.029 | [8] -0.007 | [9] 0.098 | [10] -0.017

MAVS (UniProt Q7Z434)
inactive: [1] -0.003 | [2] 0.008 | [3] 0.037 | [4] -0.061 | [5] 0.008 | [6] -0.023 | [7] 0 | [8] 0.034 | [9] -0.008 | [10] 0.072

MAX (UniProt P61244)
inactive: [1] 0.043 | [2] 0.115 | [3] -0.036 | [4] 0.022 | [5] -0.006 | [6] 0.128 | [7] -0.019 | [8] -0.042 | [9] -0.022 | [10] -0.032

Taken from the entries so far (6 entries):
METAP1 (UniProt P53582)
inactive: [1] 0.009 | [2] 0.013 | [3] -0.035 | [4] -0.016 | [5] 0.069 | [6] 0.073 | [7] -0.022 | [8] 0.026 | [9] -0.067 | [10] 0.062

MFAP1 (UniProt P55081)
inactive: [1] 0.013 | [2] 0.014 | [3] -0.056 | [4] -0.058 | [5] -0.008 | [6] 0.125 | [7] -0.023 | [8] -0.081 | [9] -0.042 | [10] -0.009

MED24 (UniProt O75448)
inactive: [1] -0.051 | [2] -0.069 | [3] 0.027 | [4] 0.051 | [5] -0.015 | [6] -0.236 | [7] 0.003 | [8] -0.007 | [9] 0.055 | [10] -0.143

ME1 (UniProt P48163)
inactive: [1] 0.015 | [2] 0.042 | [3] 0.031 | [4] -0.07 | [5] 0.07 | [6] 0.04 | [7] -0.032 | [8] -0.034 | [9] -0.012 | [10] 0.037

MCMBP (UniProt Q9BTE3)
inactive: [1] 0.049 | [2] -0.163 | [3] 0.042 | [4] 0.057 | [5] 0.04 | [6] -0.134 | [7] 0.033 | [8] 0.11 | [9] 0.056 | [10] -0.023

METTL14 (UniProt Q9HCE5)
inactive: [1] 0.029 | [2] -0.006 | [3] 0.056 | [4] -0.022 | [5] 0.012 | [6] -0.013 | [7] -0.037 | [8] -0.019 | [9] 0.033 | [10] 0.001

Next part.

MED18 (UniProt Q9BUE0)
inactive: [1] -0.049 | [2] -0.105 | [3] -0.136 | [4] -0.065 | [5] -0.024 | [6] -0.046 | [7] 0.011 | [8] -0.003 | [9] -0.055 | [10] 0.01

MESD (UniProt Q14696)
inactive: [1] -0.016 | [2] 0.095 | [3] -0.001 | [4] -0.012 | [5] -0.038 | [6] -0.027 | [7] 0.011 | [8] -0.041 | [9] 0.003 | [10] 0.016

METTL6 (UniProt Q8TCB7)
inactive: [1] 0.084 | [2] -0.021 | [3] 0.191 | [4] 0.001 | [5] 0.064 | [6] 0.024 | [7] -0.033 | [8] -0.071 | [9] -0.136

MEAF6 isoform 3 (UniProt Q9HAF1)
inactive: [1] -0.053 | [2] 0.014 | [3] -0.08 | [4] 0.004 | [5] 0.013 | [6] 0.03 | [7] 0.028 | [8] -0.048 | [9] 0.007 | [10] 0.025

MED13 (UniProt Q9UHV7)
inactive: [1] -0.026 | [2] 0.006 | [3] 0.059 | [4] -0.305 | [5] 0.021 | [6] -0.039 | [7] -0.037 | [8] 0.025 | [9] 0.159 | [10] -0.044

MCCC1 (UniProt Q96RQ3)
inactive: [1] 0.077 | [2] 0.046 | [3] 0.11 | [4] -0.066 | [5] 0 | [6] -0.126 | [7] -0.051 | [8] 0.08 | [9] -0.038 | [10] 0.021

MECR (UniProt Q9BV79)
inactive: [1] 0.008 | [2] 0.089 | [3] 0.135 | [4] -0.087 | [5] 0.107 | [6] -0.057 | [7] 0.007 | [8] -0.024 | [9] 0.01 | [10] 0.002

MED14 (UniProt O60244)
inactive: [1] 0.075 | [2] -0.065 | [3] 0.024 | [4] -0.023 | [5] 0.021 | [6] -0.05 | [7] -0.05 | [8] 0.143 | [9] 0.005 | [10] -0.165

METTL7A (UniProt Q9H8H3)
inactive: [1] 0.053 | [2] 0.133 | [3] 0.018 | [4] -0.102 | [5] 0.041 | [6] 0.018 | [7] -0.005 | [8] 0 | [9] -0.032 | [10] 0.071

MBTPS1 (UniProt Q14703)
inactive: [1] 0.027 | [2] -0.059 | [3] -0.059 | [4] 0.022 | [5] -0.065 | [6] 0.079 | [7] 0.014 | [8] 0.026 | [9] 0.058 | [10] -0.197

METTL5 (UniProt Q9NRN9)
inactive: [1] 0.011 | [2] 0.01 | [3] 0.039 | [4] -0.061 | [5] 0.022 | [6] 0.036 | [7] -0.013 | [8] -0.022 | [9] -0.015 | [10] 0.012

MCM2 (UniProt P49736)
inactive: [1] 0.011 | [2] -0.02 | [3] 0.075 | [4] -0.072 | [5] 0.005 | [6] -0.126 | [7] 0.006 | [8] 0.011 | [9] 0.011 | [10] 0.004

MCAT (UniProt Q8IVS2)
inactive: [1] -0.061 | [2] 0.028 | [3] -0.075 | [4] 0.077 | [5] -0.026 | [6] 0.029 | [7] -0.028 | [8] 0.021 | [9] 0.025 | [10] 0.012

MAT1A (UniProt Q00266)
inactive: [1] 0.068 | [2] 0.079 | [3] -0.055 | [4] -0.051 | [5] -0.004 | [6] 0.135 | [7] -0.033 | [8] -0.041 | [9] -0.052 | [10] 0.005

MCM5 (UniProt P33992)
inactive: [1] 0.013 | [2] -0.004 | [3] 0.025 | [4] -0.071 | [5] 0 | [6] -0.046 | [7] 0.022 | [8] 0.006 | [9] -0.006 | [10] 0.056

MEMO1 (UniProt Q9Y316)
inactive: [1] 0.01 | [2] -0.042 | [3] 0.074 | [4] -0.029 | [5] 0.062 | [6] -0.073 | [7] -0.029 | [8] 0.037 | [9] 0.031 | [10] 0.017

MGME1 (UniProt Q9BQP7)
inactive: [1] 0.032 | [2] -0.022 | [3] 0.031 | [4] -0.034 | [5] 0.024 | [6] 0 | [7] -0.016 | [8] 0.055 | [9] -0.007 | [10] -0.042

MGAT5 (UniProt Q09328)
inactive: [1] 0.104 | [2] 0.043 | [3] -0.071 | [4] 0.05 | [5] -0.023 | [6] -0.01 | [7] -0.015 | [8] -0.01 | [9] -0.007 | [10] 0.055

MFSD4B (UniProt Q5TF39)
inactive: [1] -0.162 | [2] -0.048 | [3] -0.137 | [4] 0.203 | [5] -0.045 | [6] -0.029 | [7] 0.069 | [8] 0.03 | [9] 0.034 | [10] -0.312

MGST2 (UniProt Q99735)
inactive: [1] -0.048 | [2] -0.042 | [3] 0.087 | [4] -0.132 | [5] 0.136 | [6] -0.088 | [7] -0.026 | [8] 0.152 | [9] 0.022 | [10] -0.002
